PubChem BioAssay AID1508597, Cure First | 2020
Here is an unselected part of about 2,100 deposited reagents. 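Calls flag viability under 80% in either arm, not effects specific to rucaparib; the reference for percent is not stated.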 Not stated in the record: the 100% reference.

Assay: 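Survival screen with siRNA in ovarian cancer cells derived from patients, with or without rucaparib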 (primary screen)
Cell system: human ovarian carcinoma lines grown from tumours: OCI-P5x (papillary serous) and OCI-C5x (clear cell)
Reagent: siRNA pool against human genes, 1.25 pmol siRNA per well
Duration: 72 h or 96 h, depending on the cell culture
Treatment: rucaparib 20 µM (about IC30) or vehicle, present until read-out
Measured: 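Luminescent ATP-based viability assay read 72 or 96 h after transfection, depending on culture, given as normalised percent viability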
Reading the numbers: viability, normalised: higher = more viable cells remaining
Rule for the call: 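Active when normalised viability falls below 80 percent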
Calls: active = viability under 80%; inactive = viability 80% or more

The opening 7 records, ahead of the listing:
Gene	rucaparib or vehicle	cell line	technical replicate	viability, normalised (%)	Outcome
NRXN3	Rucaparib	OCI-C5x (clear cell)	1	49.5	active
NRXN3	Rucaparib	OCI-C5x (clear cell)	2	40.7	active
NRXN3	Rucaparib	OCI-C5x (clear cell)	3	39.5	active
NRXN3	Rucaparib	OCI-P5x (serous)	1	45.6	active
NRXN3	Rucaparib	OCI-P5x (serous)	2	50.3	active
NRXN3	Rucaparib	OCI-P5x (serous)	3	53.1	active
NRXN3	Vehicle	OCI-C5x (clear cell)	1	51.9	active

The listing, from the start:
Gene	rucaparib or vehicle	cell line	technical replicate	viability, normalised (%)	Outcome
NRXN3	Rucaparib	OCI-C5x (clear cell)	1	49.5	active
NRXN3	Rucaparib	OCI-C5x (clear cell)	2	40.7	active
NRXN3	Rucaparib	OCI-C5x (clear cell)	3	39.5	active
NRXN3	Rucaparib	OCI-P5x (serous)	1	45.6	active
NRXN3	Rucaparib	OCI-P5x (serous)	2	50.3	active
NRXN3	Rucaparib	OCI-P5x (serous)	3	53.1	active
NRXN3	Vehicle	OCI-C5x (clear cell)	1	51.9	active
NRXN3	Vehicle	OCI-C5x (clear cell)	2	44.1	active
NRXN3	Vehicle	OCI-C5x (clear cell)	3	50.5	active
NRXN3	Vehicle	OCI-P5x (serous)	1	52.6	active
NRXN3	Vehicle	OCI-P5x (serous)	2	65.8	active
NRXN3	Vehicle	OCI-P5x (serous)	3	76.1	active
MED11	Rucaparib	OCI-C5x (clear cell)	1	35.9	active
MED11	Rucaparib	OCI-C5x (clear cell)	2	31	active
MED11	Rucaparib	OCI-C5x (clear cell)	3	41	active
MED11	Rucaparib	OCI-P5x (serous)	1	39.1	active
MED11	Rucaparib	OCI-P5x (serous)	2	43.8	active
MED11	Rucaparib	OCI-P5x (serous)	3	58.9	active
MED11	Vehicle	OCI-C5x (clear cell)	1	37	active
MED11	Vehicle	OCI-C5x (clear cell)	2	45.3	active
MED11	Vehicle	OCI-C5x (clear cell)	3	41.7	active
MED11	Vehicle	OCI-P5x (serous)	1	61	active
MED11	Vehicle	OCI-P5x (serous)	2	55.7	active
MED11	Vehicle	OCI-P5x (serous)	3	69.7	active
APBB1	Rucaparib	OCI-C5x (clear cell)	1	43.5	active
APBB1	Rucaparib	OCI-C5x (clear cell)	2	27.4	active
APBB1	Rucaparib	OCI-C5x (clear cell)	3	30.4	active
APBB1	Rucaparib	OCI-P5x (serous)	1	63.8	active
APBB1	Rucaparib	OCI-P5x (serous)	2	48.4	active
APBB1	Rucaparib	OCI-P5x (serous)	3	56.2	active
APBB1	Vehicle	OCI-C5x (clear cell)	1	24.4	active
APBB1	Vehicle	OCI-C5x (clear cell)	2	30.1	active
APBB1	Vehicle	OCI-C5x (clear cell)	3	27.7	active
APBB1	Vehicle	OCI-P5x (serous)	1	43.4	active
APBB1	Vehicle	OCI-P5x (serous)	2	51.5	active
APBB1	Vehicle	OCI-P5x (serous)	3	45	active
KMT2A	Rucaparib	OCI-C5x (clear cell)	1	27.6	active
KMT2A	Rucaparib	OCI-C5x (clear cell)	2	21.8	active
KMT2A	Rucaparib	OCI-C5x (clear cell)	3	26.4	active
KMT2A	Rucaparib	OCI-P5x (serous)	1	40.6	active
KMT2A	Rucaparib	OCI-P5x (serous)	2	36.8	active
KMT2A	Rucaparib	OCI-P5x (serous)	3	41.2	active
KMT2A	Vehicle	OCI-C5x (clear cell)	1	41.1	active
KMT2A	Vehicle	OCI-C5x (clear cell)	2	33.5	active
KMT2A	Vehicle	OCI-C5x (clear cell)	3	42.4	active
KMT2A	Vehicle	OCI-P5x (serous)	1	40.6	active
KMT2A	Vehicle	OCI-P5x (serous)	2	42.3	active
KMT2A	Vehicle	OCI-P5x (serous)	3	43.3	active
SCYL3	Rucaparib	OCI-C5x (clear cell)	1	77.3	active
SCYL3	Rucaparib	OCI-C5x (clear cell)	2	54.1	active
SCYL3	Rucaparib	OCI-C5x (clear cell)	3	64.2	active
SCYL3	Rucaparib	OCI-P5x (serous)	1	103	inactive
SCYL3	Rucaparib	OCI-P5x (serous)	2	82.3	inactive
SCYL3	Rucaparib	OCI-P5x (serous)	3	87.6	inactive
SCYL3	Vehicle	OCI-C5x (clear cell)	1	64.1	active
SCYL3	Vehicle	OCI-C5x (clear cell)	2	69.1	active
SCYL3	Vehicle	OCI-C5x (clear cell)	3	57.5	active
SCYL3	Vehicle	OCI-P5x (serous)	1	97.6	inactive
SCYL3	Vehicle	OCI-P5x (serous)	2	86.3	inactive
SCYL3	Vehicle	OCI-P5x (serous)	3	82.9	inactive
